Test results taken from publication PMC4566978.

System: BnaA.TTG2.a.1 (His-tagged) (Brassica napus)
Experiment: EMSA
Settings: Roche DIG Gel Shift kit binding protocol (buffer, salt, pH not stated), 100 ng protein, room temperature 30 min; 12% polyacrylamide gel in 25 mM Tris, 2 mM …; recombinant protein; protein details: His (pET-28a); label: digoxigenin

Sequence	binding result
TGGTAATCATAGTACACCAAGTTGACTGCACAGTGATAACATATATAT (double strand) [YUC2 promoter fragment]	binds
CGTTGACCTTGACCTTGACTTCGTTGACCTTGACCTTGACTT (double strand) [W-box (classical)]	binds
CGTTGAACTTGAACTTGAATTCGTTGAACTTGAACTTGAATT (double strand) [mW-box]	no binding
TTCAAGAAAATGTCAAAGTTTCTACATTCGTACTATTATATAATTGACTGAAGAAATTA (double strand) [TRP5 promoter fragment]	binds

The exact form of at least one protein or probe is not confirmed. Negatives hold for the conditions tested.
